Here are results for one substance from PMC9217950.

Amino acid sequences for entries named in this document (tags omitted).
UniProt P25963: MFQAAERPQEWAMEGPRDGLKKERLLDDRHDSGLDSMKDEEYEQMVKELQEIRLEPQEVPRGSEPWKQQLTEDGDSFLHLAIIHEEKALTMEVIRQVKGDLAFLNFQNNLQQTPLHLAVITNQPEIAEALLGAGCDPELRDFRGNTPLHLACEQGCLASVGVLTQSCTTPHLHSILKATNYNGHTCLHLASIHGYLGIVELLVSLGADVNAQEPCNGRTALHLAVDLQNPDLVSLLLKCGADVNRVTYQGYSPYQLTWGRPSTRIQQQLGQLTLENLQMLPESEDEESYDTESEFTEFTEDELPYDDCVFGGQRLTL

Results are given in words; binding and its absence hold for the method and conditions named. Binding seen in cells or lysates may run through a third protein. A yes stands for co-enrichment or nearness to the bait. Other partners may have been found. For part of these data: No binding means not detected with the bait. Tags and fused reporters may be left off the sequences shown.

Assay in all cases: proximity labelling; CF-PPiD on the 20 K human protein beads array: 19,712 FG-tagged human proteins as dual spots on 27 1536-well plates; AirID-IκBα translational mixture with biotin and ATP; signals normalised to RelA on each plate; only the target purified
Assay [1] has as its target T1, FLAG-GST-PRDX3 (20 K human protein beads array) (human) (UniProt P30048).
T1 sequence: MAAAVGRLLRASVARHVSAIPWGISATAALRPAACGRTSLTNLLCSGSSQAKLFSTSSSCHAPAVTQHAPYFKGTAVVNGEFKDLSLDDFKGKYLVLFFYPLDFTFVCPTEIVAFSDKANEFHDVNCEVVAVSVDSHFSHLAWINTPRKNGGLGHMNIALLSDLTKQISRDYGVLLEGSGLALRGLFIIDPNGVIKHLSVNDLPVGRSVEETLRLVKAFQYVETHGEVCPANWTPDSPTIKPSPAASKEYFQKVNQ

In assay [2] the target is T2, FLAG-GST-propionyl-CoA carboxylase subunit alpha (PCCA) (human) (UniProt P05165).
T2 sequence: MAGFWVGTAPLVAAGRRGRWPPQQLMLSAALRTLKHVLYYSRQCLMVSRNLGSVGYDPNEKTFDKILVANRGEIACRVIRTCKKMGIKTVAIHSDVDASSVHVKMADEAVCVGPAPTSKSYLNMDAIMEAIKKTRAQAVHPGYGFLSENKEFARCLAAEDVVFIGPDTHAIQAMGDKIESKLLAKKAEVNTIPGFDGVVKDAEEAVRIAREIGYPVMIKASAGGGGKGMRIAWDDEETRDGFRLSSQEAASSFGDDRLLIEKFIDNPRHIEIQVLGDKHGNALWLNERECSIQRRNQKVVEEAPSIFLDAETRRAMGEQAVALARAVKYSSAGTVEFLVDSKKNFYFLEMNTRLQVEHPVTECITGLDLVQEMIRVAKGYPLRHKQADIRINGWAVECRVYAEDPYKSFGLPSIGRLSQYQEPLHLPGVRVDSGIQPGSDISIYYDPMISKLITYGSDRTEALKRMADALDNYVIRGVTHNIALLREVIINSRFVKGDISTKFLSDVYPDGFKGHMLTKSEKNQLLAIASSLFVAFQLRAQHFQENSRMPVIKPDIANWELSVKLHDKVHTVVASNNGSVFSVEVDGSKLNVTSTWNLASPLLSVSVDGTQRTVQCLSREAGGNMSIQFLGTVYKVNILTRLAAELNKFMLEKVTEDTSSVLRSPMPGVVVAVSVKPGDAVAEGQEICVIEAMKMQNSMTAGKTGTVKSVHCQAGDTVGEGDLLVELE

Assay [3] addresses T3, FLAG-GST-methylcrotonyl-CoA carboxylase subunit 1 (MCCC1) (human) (UniProt Q96RQ3).
T3 sequence: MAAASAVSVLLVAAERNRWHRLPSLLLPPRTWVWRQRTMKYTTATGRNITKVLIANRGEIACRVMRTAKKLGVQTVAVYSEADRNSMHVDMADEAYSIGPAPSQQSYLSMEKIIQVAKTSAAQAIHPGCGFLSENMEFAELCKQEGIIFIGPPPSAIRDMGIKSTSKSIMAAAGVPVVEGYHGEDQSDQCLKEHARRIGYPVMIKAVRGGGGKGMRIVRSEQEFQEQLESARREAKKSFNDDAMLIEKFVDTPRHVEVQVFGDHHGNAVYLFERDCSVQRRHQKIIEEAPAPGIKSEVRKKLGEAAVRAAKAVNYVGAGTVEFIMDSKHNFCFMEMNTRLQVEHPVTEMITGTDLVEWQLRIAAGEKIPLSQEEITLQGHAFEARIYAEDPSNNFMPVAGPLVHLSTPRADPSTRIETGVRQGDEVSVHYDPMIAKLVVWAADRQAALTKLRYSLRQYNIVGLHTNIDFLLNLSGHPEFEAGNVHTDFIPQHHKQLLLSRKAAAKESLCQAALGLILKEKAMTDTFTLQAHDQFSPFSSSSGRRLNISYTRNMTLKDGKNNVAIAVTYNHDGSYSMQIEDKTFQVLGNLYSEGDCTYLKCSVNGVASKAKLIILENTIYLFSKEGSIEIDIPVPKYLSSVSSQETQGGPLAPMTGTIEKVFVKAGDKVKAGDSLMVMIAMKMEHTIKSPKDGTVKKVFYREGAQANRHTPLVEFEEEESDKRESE

For the substance “AirID N-terminally fused to IκBα (from UniProt P25963 1-317)”, the binding entry is on record as “binds” in assay [1], “no binding” in assay [2] and “no binding” in assay [3].
